Assay results as given in PMC6271298, “Pharmacophore Generation from a Drug-like Core Molecule Surrounded by a Library Peptide via the 10BASEd-T on Bacteriophage T7” (Molecules, 2014).
No constants are given. Whether binding was seen depends on the method and setting. Some binding calls cover weakened binding; strength is not graded here.

Biological target: streptavidin (UniProt P22629)
Experiment: ELISA; 830 pmol streptavidin immobilised per well, blocked with 1% BSA; about 2.0 × 10^10 PFU of T7 phage in tris-buffered saline with 0.5% Triton X-100, 1 h at 25 °C; detected with T7 tail fiber antibody; both purified

Binder	binding
SGGGAMWCQYHPQNCYKM (Sal-conjugated Cys at the two designated cysteines) [Sal-conjugated T7 phage-displayed peptide, clone 7 (-A-M-W-C-Q-Y-H-P-Q-N-C-Y-K-M)]	binds
SGGGRIVCVQHPQFCQY (Sal-conjugated Cys at the two designated cysteines) [Sal-conjugated T7 phage-displayed peptide, clone 2 (-R-I-V-C-V-Q-H-P-Q-F-C-Q-Y)]	binds
